Test results published in patent US20240408119A1, “DELIVERY OF THERAPEUTIC ALKALOID COMPOUNDS” (priority 2022, published 2024).
For at least one compound, name, drawing or mass did not settle the structure.

Key:
[1] = Hydrolysis Assay - Condition 1 (SGF); format: physicochemical; settings: SGF with pepsin pH 1.5, 37° C., 0.5 mM
Description: 50 μL of compound (10 mM) in DMSO was diluted into 950 μL of Simulated Gastric Fluid (SGF) with pepsin (pH 1.5) to a final concentration of 0.5 mM. The hydrolysis kinetics were conducted at 37° C. and measured by LCMS at a certain time interval.
(§1) The corresponding LCMS chromatogram were recorded and the conversions were calculated by integration of each peak.
(§2) • 1) LCMS spectra were obtained using Agilent 1200G1956A or SHIMADZU LCMS-2020. Standard LCMS conditions were as follows (running time 1.55 minutes): • Acidic condition: Mobile Phase A: 0.0375% TFA in water (v/v). Mobile Phase B: 0.01875% TFA in acetonitrile (v/v); Column: Kinetex EVO C18 30*2.1 mm, 5 μm. • Basic condition: Mobile Phase A: 0.025% NH3·H2O in water (v/v). Mobile Phase B: Acetonitrile; Column: Kinetex EVO C18 2.1×30 mm, 5 μm. • 2) Conversion (%)=peak area 1/(peak area 1+peak area 2)*100%, peak area 1 is the integration of hydrolyzed product, peak area 2 is the integration of starting material.

[2] = Hydrolysis Assay - Condition 2 (DI Water); format: physicochemical; settings: 25° C., 0.5 mM
Description: 50 μL of compound (10 mM) in DMSO was diluted into 950 μL of DI water to a final concentration of 0.5 mM. The hydrolysis kinetics were conducted at 25° C. and measured by LCMS at a certain time interval.
as §1, §2

Structure (SMILES) | Condition 1 Conversion (%) ([1]; 1 min) | Condition 1 Conversion (%) ([1]; 5 min) | Condition 1 Conversion (%) ([1]; 30 min) | Condition 1 Conversion (%) ([1]; 1 h) | Condition 1 Conversion (%) ([1]; 4 h) | Condition 1 Conversion (%) ([1]; 24 h) | Condition 2 Conversion (%) ([2]; 1 min) | Condition 2 Conversion (%) ([2]; 5 min) | Condition 2 Conversion (%) ([2]; 30 min) | Condition 2 Conversion (%) ([2]; 1 h) | Condition 2 Conversion (%) ([2]; 4 h) | Condition 2 Conversion (%) ([2]; 24 h)
COc1ccc([C@@]23CCC(OP(=O)(OCc4ccccc4)OCc4ccccc4)=C[C@@H]2N(C)CC3)cc1OC [Compound 319, [(3aS,7aS)-3a-(3,4-dimethoxyphenyl)-1-methyl-3,4,5,7a-tetrahydro-2H-indol-6-yl]dibenzyl phosphate] | 2 | 5 | 25 | 26 | 60 | 61 | 2 | 4 | 5 | 10 | 20 | 59
COc1ccc([C@@]23CCC(OP(=O)(Oc4ccccc4)Oc4ccccc4)=C[C@@H]2N(C)CC3)cc1OC [Compound 320, [(3aS,7aS)-3a-(3,4-dimethoxyphenyl)-1-methyl-3,4,5,7a-tetrahydro-2H-indol-6-yl]diphenyl phosphate] | 0 | 0 | 0 | 0 | 0 | 0 | 0 | 0 | 0 | 0 | 0 | 0
COc1ccc([C@@]23CCC(OP(=O)(OC(C)C)OC(C)C)=C[C@@H]2N(C)CC3)cc1OC [Compound 321, [(3aS,7aS)-3a-(3,4-dimethoxyphenyl)-1-methyl-3,4,5,7a-tetrahydro-2H-indol-6-yl]diisopropyl phosphate] | 0 | 0 | 0 | 0 | 0 | 0 | 0 | 0 | 0 | 0 | 0 | 0
